Assay results published in patent US8198330B2, “Therapeutic or prophylactic agent for diabetes, obesity, dyslipidemia or metabolic syndrome comprising benzylamine derivative or pharmaceutically acceptable acid addition salt thereof” (Toray Industries, Inc., priority 2008, dated 2012).
Some results were stated once for a whole list of compounds, not compound by compound.

Protein sequences, listed by entry. Tags and fused reporters are not part of them. Lines headed by an entry give the natural chain unless they say otherwise; changes in a name come on top.
UniProt P13945: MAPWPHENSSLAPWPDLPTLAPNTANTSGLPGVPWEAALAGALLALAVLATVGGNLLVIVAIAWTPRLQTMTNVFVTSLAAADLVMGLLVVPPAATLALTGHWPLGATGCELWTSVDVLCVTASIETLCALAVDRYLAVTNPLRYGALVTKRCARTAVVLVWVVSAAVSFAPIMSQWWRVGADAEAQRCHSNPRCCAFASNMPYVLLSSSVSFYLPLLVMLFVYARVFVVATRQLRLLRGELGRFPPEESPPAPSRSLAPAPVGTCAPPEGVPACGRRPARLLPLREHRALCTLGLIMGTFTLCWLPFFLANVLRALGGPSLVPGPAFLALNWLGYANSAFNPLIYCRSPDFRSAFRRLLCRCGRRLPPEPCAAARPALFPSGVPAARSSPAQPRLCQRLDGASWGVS

Target: T1, Human β3 adrenoreceptor (Homo sapiens, UniProt P13945)
T1 construct: Human β3 adrenoreceptor agonistic activity was evaluated by using SK-N-MC cells in the presence of a β1 adrenoreceptor-selective antagonist; endogenous in cells; host or cells: SK-N-MC cells
Experiment: Agonistic activity for human β3 adrenoreceptor (cAMP production, AlphaScreen, SK-N-MC cells)
Assay type: cell-based
Conditions: β3 versus β2 and β1, text statement

C[C@H](NCc1cc(Cl)cc(Cl)c1)[C@H](O)c1ccc(O)c(NS(C)(=O)=O)c1 [Example 3, N-(5-((1R,2S)-2-(3,5-Dichlorobenzylamino)-1-hydroxypropyl)-2-hydroxyphenyl)methanesulfonamide]
selectivity to β3 adrenoreceptor: superior in selectivity to β3 adrenoreceptor

Cc1cc(C)cc(CN[C@@H](C)[C@H](O)c2ccc(O)c(NS(C)(=O)=O)c2)c1 [Example 5, N-(5-((1R,2S)-2-(3,5-Dimethylbenzylamino)-1-hydroxypropyl)-2-hydroxyphenyl)methanesulfonamide]
selectivity to β3 adrenoreceptor: superior in selectivity to β3 adrenoreceptor
